Paper PMC7951919
Results are given in words; binding and its absence hold for the method and conditions named. In cells and extracts the contact can be indirect. Some entries that bind do so weakly or less than the wild type.

Chains of the proteins cited; added tags and fusions are not shown.
UniProt P05198: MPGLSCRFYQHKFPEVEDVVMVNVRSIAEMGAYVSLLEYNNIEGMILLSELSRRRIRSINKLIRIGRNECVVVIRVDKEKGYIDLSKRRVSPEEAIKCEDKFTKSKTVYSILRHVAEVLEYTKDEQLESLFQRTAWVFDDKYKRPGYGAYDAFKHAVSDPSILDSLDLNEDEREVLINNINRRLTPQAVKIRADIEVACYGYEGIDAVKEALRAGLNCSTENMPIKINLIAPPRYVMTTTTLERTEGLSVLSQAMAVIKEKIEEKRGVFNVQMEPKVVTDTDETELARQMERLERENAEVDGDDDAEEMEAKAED
UniProt Q7KZI7: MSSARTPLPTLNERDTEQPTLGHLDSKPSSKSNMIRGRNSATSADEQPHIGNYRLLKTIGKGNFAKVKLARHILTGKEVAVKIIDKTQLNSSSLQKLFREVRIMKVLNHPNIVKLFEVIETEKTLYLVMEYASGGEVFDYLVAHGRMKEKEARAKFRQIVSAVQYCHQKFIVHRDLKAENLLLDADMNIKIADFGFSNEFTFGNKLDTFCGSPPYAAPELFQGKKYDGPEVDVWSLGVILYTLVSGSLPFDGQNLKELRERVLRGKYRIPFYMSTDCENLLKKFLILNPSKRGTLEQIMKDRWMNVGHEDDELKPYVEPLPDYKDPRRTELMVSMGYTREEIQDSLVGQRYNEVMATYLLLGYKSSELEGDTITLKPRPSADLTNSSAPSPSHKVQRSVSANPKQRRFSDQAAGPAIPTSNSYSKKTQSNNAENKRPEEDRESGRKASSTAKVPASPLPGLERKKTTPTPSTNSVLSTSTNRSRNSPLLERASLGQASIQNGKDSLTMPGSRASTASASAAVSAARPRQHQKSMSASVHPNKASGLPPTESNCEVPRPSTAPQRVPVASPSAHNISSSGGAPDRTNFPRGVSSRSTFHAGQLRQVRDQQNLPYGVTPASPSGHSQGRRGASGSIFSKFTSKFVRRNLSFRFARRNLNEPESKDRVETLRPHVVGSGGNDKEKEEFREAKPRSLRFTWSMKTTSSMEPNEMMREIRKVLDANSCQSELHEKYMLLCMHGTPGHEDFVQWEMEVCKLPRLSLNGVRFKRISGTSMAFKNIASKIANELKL

Target: eukaryotic initiation factor 2 alpha (eIF2α) wild type fused with HaloTag (UniProt P05198)
Assay: FRET or BRET; NanoBRET in live HEK293 cells cotransfected with a NanoLuc fusion (donor) and a HaloTag fusion (acceptor); donor saturation assay and quantitative NanoBRET (mean corrected milliBRET); read at 460 nm and 618 nm

microtubule affinity-regulating kinase 2 (MARK2) fused with NanoLuc (from UniProt Q7KZI7 1-788) (enzyme)
binding: binds
